This is an account of results in PMC12431657, “Discovery and mechanistic insights of dibenzoylmethane as a broad spectrum inhibitor of coronavirus” (PLOS Pathogens, 2025).

The test system of the test is HCoV-OC43. More on the design: species or system RD; HTS, protection from HCoV-OC43 induced cell death, luminescent cell viability (CellCounting-Lite 2.0), inhibition rate. The note with it: 24 h post infection, 1 h compound pre-incubation, 10 µM, inhibitor.

Counter-ions that a name gives are not always drawn. Like-named read-outs stand apart in the source and are kept apart here. In all, about 3,300 compounds went through this assay and about 60 (2%) showed an effect of 50% or more. This is one part of the list.

Consider `CC(CN)C(=O)O` (centres unmarked) [3-Amino-2-methylpropanoic acid], for which the “OC43 Inhibition rate” value was -4.3%.
Take `OC[C@H]1O[C@H](O[C@H]2[C@H](O)[C@@H](O)[C@H](O)O[C@@H]2CO)[C@H](O)[C@@H](O)[C@@H]1O` [Maltose monohydrate]: the “OC43 Inhibition rate” value (OC43 Inhibition rate, 24 h) was -1.1%.
Regarding `C[C@H]1[C@H](C)CC[C@]2(C)CC[C@]3(C)C(=CC[C@@H]4[C@@]5(C)CC[C@@H](O)[C@](C)(C(=O)O)[C@@H]5CC[C@]43C)[C@H]12` [β-Boswellic acid], the “OC43 Inhibition rate” value is given as -0.2%.
Turning to `C[C@@H](O)CO` [(R)-(-)-1,2-Propanediol], the “OC43 Inhibition rate” value is reported as -0.2%.
Consider `CC[C@@H]1CN2CC[C@]3(C(=O)Nc4ccccc43)[C@@H]2C[C@@H]1/C(=C\OC)C(=O)OC` [Corynoxine B], for which the “OC43 Inhibition rate” value is given as -0.5%.
Turning to `C[C@@H]1O[C@@H](O[C@H]2[C@H](O[C@H]3CC[C@@]4(C)[C@@H](CC[C@]5(C)[C@@H]4CC=C4[C@@H]6CC(C)(C)CC[C@]6(C(=O)O)CC[C@]45C)[C@]3(C)CO)OC[C@H](O)[C@@H]2O)[C@H](O)[C@H](O)[C@H]1O` [alpha-Hederin], the “OC43 Inhibition rate” value is -3%.
Consider `C[C@H](CCC(=O)O)[C@H]1CC[C@H]2[C@@H]3C(=O)C[C@@H]4CC(=O)CC[C@]4(C)[C@H]3CC(=O)[C@]12C` [Dehydrocholate (sodium)], for which the “OC43 Inhibition rate” value is reported as -1%.
Turning to `O=C(O)CCCCCC(=O)O` [Pimelic acid], the “OC43 Inhibition rate” value came out at 0%.
Turning to `CCCCCCCCCCCCCCCc1cccc(O)c1C(=O)O` [Anacardic Acid], the “OC43 Inhibition rate” value is given as -3.2%.
Turning to `C[C@H](CCC(=O)NCC(=O)O)[C@H]1CC[C@H]2[C@@H]3[C@H](O)C[C@@H]4C[C@H](O)CC[C@]4(C)[C@H]3CC[C@]12C` [Glycochenodeoxycholic acid], under “OC43 Inhibition rate, 24 h”, the “OC43 Inhibition rate” value is given as 0.1%.
Take `COC(=O)/C=C/C(=O)OC` [Dimethyl fumarate]: the “OC43 Inhibition rate” value is given as -0.3%.
Same read-out and setting: with `CC(C)=CCC[C@](C)(O)[C@H]1CC[C@]2(C)[C@@H]1[C@H](O)C[C@@H]1[C@@]3(C)CC[C@H](O)C(C)(C)[C@@H]3[C@@H](O[C@@H]3O[C@H](CO)[C@@H](O)[C@H](O)[C@H]3O[C@@H]3O[C@@H](C)[C@H](O)[C@@H](O)[C@H]3O)C[C@]12C` [Ginsenoside Rg2] the figure was -0.5%; with `C[C@]12CC[C@@H](O)C[C@H]1CC[C@@H]1[C@@H]2[C@@H](O)C[C@@]2(C)[C@H]1CC[C@]2(O)C(=O)CO` [Tetrahydrocortisol], -0.2%.
Turning to `COc1ccc(-c2oc3cc(O)cc(O)c3c(=O)c2O)cc1O` [Tamarixetin], the “OC43 Inhibition rate” value came to 1.3%.
Turning to `COc1cc(O)cc(OC)c1OC` [Antiarol], the “OC43 Inhibition rate” value was -0.8%.
Turning to `CCCCCCCCCCCC(C)=O` [2-Tridecanone], the “OC43 Inhibition rate” value is 0.6%.
As for `C[N+](C)(C)[C@@H](Cc1c[nH]c2ccccc12)C(=O)[O-]` [Hypaphorine], the “OC43 Inhibition rate” value is 7.3%.
As for `O=c1[nH]c(=O)c2nc[nH]c2[nH]1` [Xanthine], the “OC43 Inhibition rate” value is -0.6%.
Same read-out and setting: with `CC1(C)CC[C@]2(C(=O)O)CC[C@]3(C)C(=CC[C@@H]4[C@@]5(C)CC[C@H](O[C@@H]6O[C@H](C(=O)O)[C@@H](O)[C@H](O)[C@H]6O)C(C)(C)[C@@H]5CC[C@]43C)[C@@H]2C1` [Calenduloside E] the figure was -3.6%; with `CCOC(=O)c1cc(O)c(O)c(O)c1` [Ethyl gallate], 0.3%.
Consider `C[C@@H]1O[C@@H](O[C@H]2[C@H](Oc3cc(O)c4c(=O)cc(-c5ccc(O)c(O)c5)oc4c3)O[C@H](CO)[C@@H](O)[C@@H]2O)[C@H](O)[C@H](O)[C@H]1O` [Lonicerin], for which the “OC43 Inhibition rate” value amounted to 0.3%.
For the compound `CN1CCN2c3ccccc3Cc3ccccc3C2C1` (centres unmarked) [Mianserin (hydrochloride)], the “OC43 Inhibition rate” value came out at 0.8%.
As to `O=c1c2ccccc2[nH]c2ccccc12` [Acridone], the “OC43 Inhibition rate” value came out at 2.3%.
For the compound `CC(C)=CCc1cc(C(=O)/C=C/c2ccc(O)cc2)c(O)cc1O` [Bavachalcone], the “OC43 Inhibition rate” value is recorded as -1.3%.
In the case of `CC(C)=CCc1c(-c2ccc(O)c3c2OC(C)(C)C=C3)oc2cc(O)cc(O)c2c1=O` [Kuwanon A], the “OC43 Inhibition rate” value is given as -28.4%.
For `C/C=C(/C)C(=O)O[C@H]1c2cc(OC)c(OC)c(OC)c2-c2c(cc3c(c2OC)OCO3)C[C@H](C)[C@]1(C)O` [Schisantherin B], the “OC43 Inhibition rate” value was 1.4%.
Consider `C[C@H]1[C@H](C)CC[C@]2(C(=O)O)CC[C@]3(C)C(=CC[C@@H]4[C@@]5(C)C[C@@H](O)[C@H](O)[C@@](C)(CO)[C@@H]5[C@H](O)C[C@]43C)[C@H]12` [Madecassic acid], for which the “OC43 Inhibition rate” value is reported as -0.2%.
Same read-out and setting: in the case of `CCOC(N)=O` [Urethane] it was 4.9%.
Still for that read-out and setting: with `COc1ccc2c(c1)O[C@H]1c3ccc(O)cc3OC[C@@H]21` [Medicarpin] the figure was 0.2%.
For the compound `COc1ccc2cc1Oc1ccc(cc1)C[C@H]1c3cc(c(OC)cc3CCN1C)Oc1c(O)c(OC)cc3c1[C@H](C2)N(C)CC3` [Fangchinoline], the “OC43 Inhibition rate” value came out at 41.6%.
Still for that read-out and setting: in the case of `O=C1C[C@@H](c2ccc(O)c(O)c2)Oc2c1ccc(O[C@@H]1O[C@H](CO)[C@@H](O)[C@H](O)[C@H]1O)c2O` [Flavanomarein] it was -5.7%; in that of `O=C1c2cccc(O)c2C(=O)c2c(O)cccc21` [Danthron], 0.8%.
In the case of `COc1cc(O)c2c(=O)c(OC)c(-c3ccc(O)c(OC)c3)oc2c1` [Pachypodol], the “OC43 Inhibition rate” value stood at 0%.
As for `Cc1ccc(C(=O)O)cc1` [p-Toluic acid], the “OC43 Inhibition rate” value is given as -3.1%.
Consider `CNCC(=O)O` [Sarcosine], for which the “OC43 Inhibition rate” value worked out at 2.2%.
On to `CCCC(C)C(=O)O` (centres unmarked) [2-Methylvaleric acid], for which the “OC43 Inhibition rate” value was -6.4%.
On the same count and under the same terms, with `O=C(O)C(=O)Cc1ccccc1` [Phenylpyruvic acid] the figure was -1.6%.
For the compound `O=C(O)C(=O)CO` [Hydroxypyruvic acid], the “OC43 Inhibition rate” value was -0.3%.
Regarding `O=C1c2ccc(O)cc2OCC1c1ccc(O)cc1` (centres unmarked) [Dihydrodaidzein], the “OC43 Inhibition rate” value is listed as -1.4%.
Still for that read-out and setting: in the case of `O=C(O)c1cc(=O)c2ccccc2[nH]1` [Kynurenic acid] it was 4.3%.
On to `COc1cc2c(cc1O)CC[n+]1cc3c(OC)c(OC)ccc3cc1-2` [Jatrorrhizine (hydroxide)], for which the “OC43 Inhibition rate” value (OC43 Inhibition rate, 24 h) was found to be 1%.
As to `Cc1cc2nc3c(=O)[nH]c(=O)nc-3n(C[C@H](O)[C@H](O)[C@H](O)COP(=O)(O)O)c2cc1C` [Riboflavin (phosphate sodium)], the “OC43 Inhibition rate” value was 11.2%.
On the same count and under the same terms, in the case of `O=c1ncnc2n([C@H]3O[C@@H](CO)[C@H](O)[C@@H]3O)[nH]cc1-2` (stereo in doubt) [Allopurinol riboside] it was 1.9%; in that of `CC(C)=CCC[C@](C)(O[C@@H]1O[C@H](CO)[C@@H](O)[C@H](O)[C@H]1O)[C@H]1CC[C@]2(C)[C@@H]1[C@H](O)C[C@@H]1[C@@]3(C)CC[C@H](O[C@@H]4O[C@H](CO)[C@@H](O)[C@H](O)[C@H]4O[C@@H]4O[C@H](CO)[C@@H](O)[C@H](O)[C@H]4O)C(C)(C)[C@@H]3CC[C@]12C` [Ginsenoside Rd], -0.9%; in that of `C[C@@H]1O[C@@H](OC[C@H]2O[C@@H](Oc3c(-c4ccc(O)cc4)oc4cc(O)cc(O)c4c3=O)[C@H](O[C@@H]3O[C@H](CO)[C@H](O)[C@H](O)[C@H]3O)[C@@H](O)[C@@H]2O)[C@H](O)[C@H](O)[C@H]1O` [Camelliaside A], -0.5%.
As for `OCC(CO)N[C@H]1C[C@](O)(CO)[C@@H](O)[C@H](O)[C@H]1O` [Voglibose], the “OC43 Inhibition rate” value was -2.6%.
For `CCCCCCCC/C=C\CCCCCCCCCC(=O)O` [Gondoic acid], the “OC43 Inhibition rate” value is -0.6%.
Turning to `C[C@H]1C(=O)CC[C@@H]2[C@]1(C)CC[C@H]1[C@@]2(C)CC[C@@]2(C)[C@@H]3CC(C)(C)CC[C@]3(C)CC[C@]12C` [Friedelin], the “OC43 Inhibition rate” value was -1.4%.
Consider `CCCCCCCCCCC/C=C\CCCCC(=O)O` [Petroselinic acid], for which the “OC43 Inhibition rate” value was -0.2%.
For the compound `NCCP(=O)(O)O` [(2-Aminoethyl)phosphonic acid], the “OC43 Inhibition rate” value is 0.1%.
On to `CCCCCCCCCCCCCCCCCCCCCCCCCCCC(=O)O` [Octacosanoic acid], for which the “OC43 Inhibition rate” value is -0.6%.
Consider `CC1(C)CC(=O)CC(C)(C)N1` [Triacetonamine], for which the “OC43 Inhibition rate” value is -1.3%.
On the same count and under the same terms, with `C/C=C(\C)C(=O)O[C@H]1[C@H](O)[C@]2(COC(C)=O)[C@H](O)C[C@]3(C)C(=CC[C@@H]4[C@@]5(C)CC[C@H](O[C@@H]6O[C@H](C(=O)O)[C@@H](O[C@@H]7O[C@H](CO)[C@@H](O)[C@H](O)[C@H]7O)[C@H](O)[C@H]6O[C@@H]6O[C@H](CO)[C@@H](O)[C@H](O)[C@H]6O)[C@](C)(CO)[C@@H]5CC[C@]43C)[C@@H]2CC1(C)C` [Isoescin IA] the figure was -0.1%; with `C/C(=C/CC[C@]1(CO)CC[C@]2(C)[C@H](CC[C@@H]3[C@@]4(C)CC[C@H](O[C@@H]5O[C@H](CO)[C@@H](O)[C@H](O)[C@H]5O[C@@H]5O[C@H](CO)[C@@H](O)[C@H](O)[C@H]5O)[C@@](C)(CO[C@@H]5O[C@H](CO)[C@@H](O)[C@H](O)[C@H]5O)[C@@H]4CC[C@]32C)[C@H]1O)CO` [Hosenkoside C], -0.6%.
As to `C/C=C(/C)C(=O)O[C@H]1c2cc3c(c4c2[C@@]2(CO4)C(=O)C(OC)=C(OC)C=C2C[C@@H](C)[C@H]1C)OCO3` [Heteroclitin D], the “OC43 Inhibition rate” value is -0.2%.
Still for that read-out and setting: in the case of `Cn1c(=O)c2[nH]c(=O)[nH]c2n(C)c1=O` [1,3-Dimethyluric acid] it was -1.4%; in that of `C=C1C(=O)O[C@H]2C[C@@H](C)[C@@H]3CCC(=O)[C@@]3(C)[C@@H](OC(C)=O)[C@H]12` [Ergolide], 10.6%; in that of `NCCCS(=O)(=O)O` [Tramiprosate], 0.3%.
Take `COc1cc(O)c2c(=O)c(OC)c(-c3ccc(OC)c(O)c3)oc2c1` [Ayanin]: the “OC43 Inhibition rate” value was found to be 18%.
